The assay concerns the target Biotinylated recombinant CD97, N-terminal extracellular domain (residues 24-540) with Fc domain and avidin tag (human) (UniProt P48960). In words: BLI; Octet RED384; biotinylated recombinant CD97 immobilised on streptavidin biosensors; 6.25 nM to 100 nM human DAF-Fc in solution; PBS with 0.1% BSA kinetic buffer; global fit (1:1); both purified. On the technique in general: In BLI a coated tip is dipped into the sample, and binding shifts an interference pattern.

The chains behind the UniProt entries cited, without tags or fusion partners. Residues count along the entry.
UniProt P48960, residues 24-540: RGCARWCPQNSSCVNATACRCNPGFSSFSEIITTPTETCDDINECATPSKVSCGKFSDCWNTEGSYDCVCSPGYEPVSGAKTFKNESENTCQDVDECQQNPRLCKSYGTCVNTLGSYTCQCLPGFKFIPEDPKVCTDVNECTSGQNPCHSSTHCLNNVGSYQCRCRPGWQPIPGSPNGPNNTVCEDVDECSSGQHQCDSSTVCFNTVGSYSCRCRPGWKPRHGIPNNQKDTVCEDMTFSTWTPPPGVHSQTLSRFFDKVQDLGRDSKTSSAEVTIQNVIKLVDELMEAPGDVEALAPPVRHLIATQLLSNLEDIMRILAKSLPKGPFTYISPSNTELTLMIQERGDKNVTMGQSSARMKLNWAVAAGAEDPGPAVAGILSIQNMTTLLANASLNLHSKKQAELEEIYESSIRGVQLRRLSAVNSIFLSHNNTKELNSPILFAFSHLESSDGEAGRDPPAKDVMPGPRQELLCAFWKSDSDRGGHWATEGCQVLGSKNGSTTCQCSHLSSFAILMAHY
UniProt P08174, residues 35-353: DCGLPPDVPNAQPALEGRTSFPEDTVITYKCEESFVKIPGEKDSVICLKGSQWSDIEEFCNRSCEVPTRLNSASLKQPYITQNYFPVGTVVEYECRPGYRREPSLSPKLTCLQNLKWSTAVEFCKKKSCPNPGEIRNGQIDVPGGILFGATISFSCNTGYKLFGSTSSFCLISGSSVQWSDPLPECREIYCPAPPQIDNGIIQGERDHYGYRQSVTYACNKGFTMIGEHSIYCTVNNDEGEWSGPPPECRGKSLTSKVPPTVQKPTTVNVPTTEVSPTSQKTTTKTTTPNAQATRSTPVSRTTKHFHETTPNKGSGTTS

Results are given in words; binding and its absence hold for the method and conditions named. Some entries that bind do so weakly or less than the wild type.

“DAF-Fc (decay accelerating factor, DAF/CD55, fused to the human IgG1 Fc region) (from UniProt P08174 35-353) (Fc fusion)”: the binding entry is reported as “binds”.

Values taken from PMC8795421.
